# Reference: PubChem BioAssay AID1259266 (Sanger Institute, 2017)
# Aim: 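Find knock-downs that kill LS123 cells or act with anchor drugs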 (primary screen)
# Cell system: LS123 human colorectal cancer cells
# Reagent: siRNA pool against human genes
# Conditions: anchor drugs BYL719 (1 µM), cetuximab (5 µg/ml) or trametinib (10 nM), each chosen to barely slow growth alone; DMSO vehicle as the drug-free arm
# Measured: 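Replicate-averaged viability scaled to non-targeting pools, robust z-score for siRNA alone, and a synergy score per anchor drug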
# Scale: robust z-score, knock-down alone: higher = more cells surviving after knock-down; viability, knock-down alone: higher = more viable cells; synergy score with trametinib and synergy score with BYL719 and synergy score with cetuximab: higher = stronger synthetic lethality with drug
# Call rule: 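a knock-down counts as essential if its z-score without drug is under -3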
# Calls: active = essential (knock-down alone cuts viability); inactive = no change
# In all, the deposit lists 794 reagents; shown is a random part of them. 16 of them (2%) count as active. 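Calls reflect knock-down alone, not drug synergy; viability seems capped at 1 and z-scores at 0.585.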 Entries without a mark were called inactive. No sequences are given here. Not stated in the record: the amount of reagent, the time to read-out.
target,PubChem SID,"robust z-score, knock-down alone","viability, knock-down alone (fraction of control)",synergy score with trametinib,synergy score with BYL719,synergy score with cetuximab
LRRK2,SID152152689,0.585,1,-0.0192,-0.065,-0.00589
CDK20,SID152152456,-1.3,0.888,0.0512,0.0502,0.0981
CLK2,SID152151259,0.585,1,-0.0894,-0.0848,0.065
TRIB2,SID56479059,-0.782,0.919,0.118,-0.0432,0.102
FER,SID152156672,0.585,1,-0.0622,-0.0326,-0.00774
SMC1A,SID134311995,-2.48,0.818,-0.00121,-0.0583,-0.0837
IP6K1,SID135621239,0.585,1,-0.186,-0.159,-0.0122
NTRK3,SID135620627,0.585,1,-0.186,-0.159,-0.0122
SGK1,SID152156682,0.585,1,-0.12,-0.0981,-0.0122
APC,SID152153239,-1.35,0.885,0.0118,-0.199,-0.107
PFKFB3,SID135621247,0.585,1,-0.0103,-0.0935,-0.0122
PIK3R4,SID135620923,-0.07,0.961,-0.0737,-0.151,-0.0507
DCK,SID56479088,0.14,0.974,0.0775,-0.159,-0.00785
PDK3,SID152151041,-0.675,0.925,0.000832,-0.0419,0.0406
ILK,SID152151227,0.585,1,-0.143,-0.152,-0.0122
ILK,SID152153406,0.585,1,0.0591,-0.036,-0.0122
DYRK1A,SID135620889,0.585,1,-0.167,-0.151,-0.0122
CKMT2,SID152154085,0.585,1,0.0113,0.0459,0.0391

Targets listed so far whose gene name starts with D or d (2):
target,PubChem SID,"robust z-score, knock-down alone","viability, knock-down alone (fraction of control)",synergy score with trametinib,synergy score with BYL719,synergy score with cetuximab
DCK,SID56479088,0.14,0.974,0.0775,-0.159,-0.00785
DYRK1A,SID135620889,0.585,1,-0.167,-0.151,-0.0122

Further reagents follow.
target,PubChem SID,"robust z-score, knock-down alone","viability, knock-down alone (fraction of control)",synergy score with trametinib,synergy score with BYL719,synergy score with cetuximab
TGFBR3,SID152150530,0.585,1,-0.0535,-0.151,-0.0122
CDK15,SID56478852,0.551,0.998,-0.0903,-0.0244,0.0198
PIK3C2G,SID152155956,0.268,0.981,0.129,0.0647,0.108
GNE,SID56479101,0.074,0.97,-0.0553,-0.136,-0.0422
TESK1,SID152149255,-0.0311,0.963,-0.0514,0.00592,-0.0484
TNNI3K,SID56478945,0.585,1,-0.0981,-0.122,-0.0122
HCK,SID135620622,0.585,1,-0.139,-0.142,-0.0122
MAP2K4,SID56478690,0.244,0.98,-0.0557,-0.0753,-0.0322
CDK1,SID56478584,0.585,1,-0.0482,-0.0473,-0.0122
PRKAR1A,SID135621428,0.585,1,-0.186,-0.106,-0.0122
WNK4,SID56478961,0.585,1,-0.0927,-0.159,-0.0122
NME1,SID56479166,0.585,1,-0.183,-0.138,-0.0122
MYLK4,SID152150692,0.585,1,-0.104,-0.159,-0.0122
CHUK,SID152149746,0.585,1,-0.186,-0.159,-0.0122
DCLK2,SID152154613,-0.174,0.955,-0.128,-0.166,-0.035
CKM,SID56479085,0.585,1,-0.0124,-0.0294,0.0092
